In this assay the target is T1, Translationally controlled tumor protein 1 (human (endogenous in AGS)) (UniProt P13693).
T1 sequence: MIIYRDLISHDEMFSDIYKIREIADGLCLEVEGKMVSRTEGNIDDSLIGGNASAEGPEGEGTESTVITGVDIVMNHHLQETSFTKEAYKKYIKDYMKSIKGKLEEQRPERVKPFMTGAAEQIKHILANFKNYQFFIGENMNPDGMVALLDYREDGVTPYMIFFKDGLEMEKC
Briefly: co-IP; lysates of AGS cells stimulated with H. pylori 26695 or the ΔSlyD strain; incubated overnight at 4 °C with anti-TPT1 or IgG antibody and protein A/G beads, washed three times in IP lysis buffer; western blot for TPT1 and hnRNPK. In general terms: In western blotting, separated proteins are transferred to a membrane and probed.

These are yes or no findings as the source states them, for the method shown. In cells and extracts the contact can be indirect. Some entries that bind do so weakly or less than the wild type.

As to “Heterogeneous nuclear ribonucleoprotein K (from UniProt P61978 1-463)”, the binding entry is recorded as “binds”.

(Values after PMC11803974.)
